Measurements reported in paper PMC6113226.
No constants are given. Whether binding was seen depends on the method and setting. Binding seen in cells or lysates may run through a third protein. Some results given as binding are weak or reduced against the parent protein; the word gives no strength. Tags and fused reporters may be left off the sequences shown.

Amino acid sequences for entries named in this document (tags omitted).
UniProt P62330: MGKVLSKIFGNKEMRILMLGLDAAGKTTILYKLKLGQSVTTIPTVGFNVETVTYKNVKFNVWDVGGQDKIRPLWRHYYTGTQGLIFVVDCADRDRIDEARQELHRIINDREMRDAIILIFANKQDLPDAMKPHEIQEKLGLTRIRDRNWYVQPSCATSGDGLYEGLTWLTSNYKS

How the values were obtained:
Test in all cases: co-IP; lysates of Xenopus gastrula (stage 10) embryos injected with RNAs of tagged proteins; ice-cold TNSG buffer (20 mM Tris-HCl pH 7.5, 137 mM NaCl, 1% NP-40); IP 8 h, 25 embryo equivalents, anti-Flag, HA or V5-agarose; western blot; in some panels Dsh2-MO, Dsh2-MOR RNA, caFGFR or EphB-ΔC RNAs co-injected
[1] = biological target: T1, TBC1d24-V5 (wild-type Xenopus TBC1d24, V5-tagged) (Xenopus) (UniProt A1A5K6)
T1 sequence: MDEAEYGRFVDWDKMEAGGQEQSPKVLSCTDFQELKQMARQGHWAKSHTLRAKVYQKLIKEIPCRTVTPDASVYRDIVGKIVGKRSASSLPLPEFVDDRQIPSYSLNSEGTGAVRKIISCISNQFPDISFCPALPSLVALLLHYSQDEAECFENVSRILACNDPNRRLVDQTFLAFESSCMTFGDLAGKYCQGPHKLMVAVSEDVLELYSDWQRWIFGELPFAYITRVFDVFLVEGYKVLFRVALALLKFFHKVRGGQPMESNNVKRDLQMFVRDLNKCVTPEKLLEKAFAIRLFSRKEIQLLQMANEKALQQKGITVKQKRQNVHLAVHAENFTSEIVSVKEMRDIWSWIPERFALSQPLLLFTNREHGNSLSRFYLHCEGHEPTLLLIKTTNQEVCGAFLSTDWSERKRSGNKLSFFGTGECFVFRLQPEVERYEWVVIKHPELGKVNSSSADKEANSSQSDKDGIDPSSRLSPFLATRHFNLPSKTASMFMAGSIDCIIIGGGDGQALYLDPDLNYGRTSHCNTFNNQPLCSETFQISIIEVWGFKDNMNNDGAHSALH

[2] = biological target: T2, Dishevelled 2 (Dsh2), HA-tagged (Xenopus) (UniProt P51142)
T2 sequence: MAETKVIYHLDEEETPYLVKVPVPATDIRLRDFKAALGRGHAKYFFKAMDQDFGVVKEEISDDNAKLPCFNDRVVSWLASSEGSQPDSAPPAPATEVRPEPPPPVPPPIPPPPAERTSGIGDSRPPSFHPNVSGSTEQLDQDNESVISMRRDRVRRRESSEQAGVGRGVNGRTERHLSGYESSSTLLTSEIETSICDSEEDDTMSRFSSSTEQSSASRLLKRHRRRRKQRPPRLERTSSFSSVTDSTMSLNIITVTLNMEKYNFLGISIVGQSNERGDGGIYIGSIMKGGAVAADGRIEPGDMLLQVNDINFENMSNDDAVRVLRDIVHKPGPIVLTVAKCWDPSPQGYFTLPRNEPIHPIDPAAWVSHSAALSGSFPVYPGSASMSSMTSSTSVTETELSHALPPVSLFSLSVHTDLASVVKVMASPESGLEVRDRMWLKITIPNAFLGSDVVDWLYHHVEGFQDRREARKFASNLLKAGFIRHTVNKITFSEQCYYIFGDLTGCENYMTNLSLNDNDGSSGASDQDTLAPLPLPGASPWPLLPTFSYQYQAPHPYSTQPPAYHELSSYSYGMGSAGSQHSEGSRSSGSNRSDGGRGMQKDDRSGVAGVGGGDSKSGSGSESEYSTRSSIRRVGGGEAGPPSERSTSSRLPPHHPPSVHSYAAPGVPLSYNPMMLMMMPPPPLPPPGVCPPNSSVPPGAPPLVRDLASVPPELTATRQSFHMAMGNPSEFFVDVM

[3] = biological target: Arf6 (UniProt P62330)

B1: Dsh2 construct representing only the DEP domain, HA-tagged (domain or fragment, UniProt P51142 428-502)
chain: PESGLEVRDRMWLKITIPNAFLGSDVVDWLYHHVEGFQDRREARKFASNLLKAGFIRHTVNKITFSEQCYYIFGD
binding [1]: binds

B2: TBC1d24-V5 (wild-type Xenopus TBC1d24, V5-tagged) (protein, UniProt A1A5K6 1-562)
chain: T1 sequence
binding [2]: binds | binding [3]: binds weakly

B3: Dishevelled 2 (Dsh2), HA-tagged (protein, UniProt P51142 1-736)
chain: T2 sequence
binding [1]: binds
